# Measurements reported in PubChem BioAssay AID504847 (National Center for Advancing Translational Sciences (NCATS), 2011).
# Chains of the proteins cited; added tags and fusions are not shown. Lines headed by an entry give the natural chain unless they say otherwise; changes in a name come on top.
# UniProt P11473: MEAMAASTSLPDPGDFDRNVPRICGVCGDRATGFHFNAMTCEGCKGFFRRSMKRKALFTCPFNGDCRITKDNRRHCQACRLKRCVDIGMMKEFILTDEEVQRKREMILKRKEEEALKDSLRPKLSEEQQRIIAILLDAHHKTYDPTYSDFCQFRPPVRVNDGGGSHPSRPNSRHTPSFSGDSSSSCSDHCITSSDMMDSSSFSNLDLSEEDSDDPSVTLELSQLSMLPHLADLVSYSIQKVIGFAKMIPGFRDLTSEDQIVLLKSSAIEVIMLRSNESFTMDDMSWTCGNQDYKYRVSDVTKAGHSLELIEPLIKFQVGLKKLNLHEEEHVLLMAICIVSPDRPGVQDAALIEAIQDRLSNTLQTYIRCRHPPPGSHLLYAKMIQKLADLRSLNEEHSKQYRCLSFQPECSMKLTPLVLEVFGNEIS
# Out of some 400,000 compounds screened, about 3,700 (0.93%) were called active. Inconclusive results, whose numbers are uncertain, are shown with a selection of clear calls. Calls follow the shape of the dose curve; as a rule, active = well fitted inhibition curve with a large enough effect; inconclusive = small, poorly fitted or top-dose-only effect, or another doubt; inactive = no such curve, though single readings can be large or run the other way. Potencies beside an inconclusive call are fits to weak or partial responses and may not hold up.
# Biological target: Vitamin D3 receptor (Homo sapiens) (UniProt P11473)
# Assay: Inhibitors of the vitamin D receptor (VDR): qHTS
# Conditions: VDR-SRC2-3 peptide fluorescence polarization, 2 h; max response, negative = inhibition: stronger effect = lower value
# Procedure, shortened: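 The screen uses fluorescence polarization to detect compounds that interfere with recruitment of the SRC2-3 coactivator peptide to VDR; plates are read after 2 h at room temperature.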
# % is scaled to controls: 0 for no effect and ±100 for the full control effect; potency is read from the fitted curve at half-maximal effect.
Compound,"max response, negative = inhibition",Potency
CC1CCCCC1NC(=O)C1CCN(c2c3c(nc4ncnn24)CCC3)CC1 (configuration not stated),inactive: -5.67%,
O=C(NNc1ccc(-c2csnn2)cc1)c1cc(Cl)cc(Cl)c1,,"inconclusive: 22.4 µM [inhibitor, partial curve, poor fit]"
Cc1ccccc1-c1cncnc1N1CCN(C)CC1,,"inconclusive: 50.1 µM [inhibitor, partial curve]"
O=C(CCC(=O)N1CCOc2ccc(Cl)cc21)NCCN1CCOCC1,inactive: 6.96%,
COc1ccccc1/C=C1/C(=O)N(c2cc(C)cc(C)c2)C(c2cccc([N+](=O)[O-])c2)S1(=O)=O (configuration not stated),,"inconclusive: 56.2 µM [inhibitor, partial curve, poor fit]"
CCOC(=O)CSc1nnc(NCC(=O)OC)c(=O)[nH]1,,active: 39.8 µM
O=[N+]([O-])c1ccc(-c2cc(-c3ccc(Cl)cc3)n[nH]2)cc1,,"inconclusive: 3.98 µM [inhibitor, single point]"
Cn1c(=O)c2[nH]c(C3CC3)nc2n(C)c1=O,,"inconclusive: 89.1 µM [inhibitor, single point]"
O=C(O)CN1C(=O)/C(=C\c2cc(Br)ccc2OCc2ccc([N+](=O)[O-])cc2)SC1=S,,active: 35.5 µM
Cc1ccccc1Cc1c(C)nc2c(C(=O)NCc3ccco3)cnn2c1C,,"inconclusive: 89.1 µM [inhibitor, partial curve]"
Cc1ccc(C2=N/C(=C\c3ccc(OS(=O)(=O)c4ccc(C)cc4)cc3)C(=O)O2)cc1,,"inconclusive: 89.1 µM [inhibitor, single point]"
COC(=O)CCC(=O)OC1(C)C(=O)C2=CN(CCc3ccccn3)C(c3ccc(OC)cc3)=CC2=C(Br)C1=O (configuration not stated),,"inconclusive: 56.2 µM [inhibitor, partial curve, poor fit]"
Cc1ccc(-c2cc(NC(=O)CCl)n(-c3ccccc3)n2)cc1,,"inconclusive: 3.16 µM [inhibitor, full curve]"
COc1cc(N=C2C(=O)N3c4c(cccc42)C(C)=CC3(C)C)cc(OC)c1,,"inconclusive: 70.8 µM [inhibitor, partial curve]"
CCOC(=O)C1(C)Oc2ccccc2C(C(=O)OC)=C1C(=O)OC (configuration not stated),,"inconclusive: 112 µM [inhibitor, partial curve, poor fit]"
CCOc1cc(C(c2c(C)[nH][nH]c2=O)c2c(C)[nH][nH]c2=O)ccc1O,,"inconclusive: 89.1 µM [inhibitor, single point]"
CCC(C)n1c(NC(=O)c2ccccc2)c(C#N)c2nc3ccccc3nc21 (configuration not stated),,"inconclusive: 50.1 µM [inhibitor, partial curve, poor fit]"

# Entries of single compounds from above.
# O=[N+]([O-])c1ccc(-c2cc(-c3ccc(Cl)cc3)n[nH]2)cc1 is listed as Potency: inconclusive: 3.98 µM [inhibitor, single point]
# CCOc1cc(C(c2c(C)[nH][nH]c2=O)c2c(C)[nH][nH]c2=O)ccc1O is listed as Potency: inconclusive: 89.1 µM [inhibitor, single point]
